PubChem BioAssay AID1224830 – NIAID | 2016
Aim: 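Host factors that control LPS-induced TNF expression in human macrophages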 (primary screen). Cells: human THP-1 monocytic leukaemia cells, TNF dual-luciferase reporter clone, PMA-differentiated to macrophage-like cells. Reagent: siRNA pool against human genes, 50 nM. Duration: LPS for 4 h, given about 3 days after siRNA transfection. Conditions: bacterial LPS (TLR4 ligand), 10 ng/ml. Read-out: 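Ratio of firefly to renilla light, scaled to the plate median and expressed as a robust z-score per replicate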. Scale: TNF reporter robust z-score: higher = stronger TNF reporter response to LPS. Rule for the call: 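a well is active when its z-score exceeds 2.8 or falls below -1.5; control wells carry no call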.
The deposit covers about 18,000 reagents; below is a part drawn at random. About 2,900 of them (16%) count as active. 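Calls are made per well; low scores hint the gene aids the LPS response, high scores that it dampens it.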 Entries without a mark were called inactive. Repeated entries: four replicate wells of each siRNA pool.

| Target gene | TNF reporter robust z-score |
| --- | --- |
| WDR46 | -0.59 |
| WDR46 | -0.16 |
| WDR46 | -0.67 |
| WDR46 | -0.14 |
| ZNHIT3 | -2.19 (active) |
| ZNHIT3 | -1.95 (active) |
| ZNHIT3 | -1.78 (active) |
| UBE2V1 | -0.49 |
| UBE2V1 | 1.07 |
| UBE2V1 | -0.03 |
| UBE2V1 | -0.95 |
| MRPL3 | 0.11 |
| MRPL3 | -0.78 |
| MRPL3 | -0.47 |
| MRPL3 | -0.58 |
| RNF19B | 0.21 |
| RNF19B | 0.27 |
| RNF19B | -0.07 |
| RNF19B | 1.76 |
| IMPACT | -0.92 |
| IMPACT | 0.24 |
| IMPACT | -0.63 |
| IMPACT | -0.86 |
| LRIG2 | -0.52 |
| LRIG2 | -0.17 |
| LRIG2 | -0.21 |
| LRIG2 | -0.16 |
| NGB | 1.55 |
| NGB | 2.04 |
| NGB | 2.15 |
| NGB | 2.26 |
| TCEAL5 | 0.69 |
| TCEAL5 | 1.8 |
| TCEAL5 | 0.32 |
| TCEAL5 | 1.42 |
| USP6 | 0.59 |
| USP6 | 2.05 |
| USP6 | 0.33 |
| USP6 | 1.28 |
| DNAJB1 | 1.03 |
| DNAJB1 | -0.16 |
| DNAJB1 | 1.51 |
| DNAJB1 | 0.38 |
| PTPRB | -0.16 |
| PTPRB | 0.15 |
| PTPRB | 1.81 |
| PTPRB | -0.27 |
